Values of other authors in patent US20210393726A1, “USE OF EXTRACT OF VEGETATION WATERS IN THE REGENERATION OF EPITHELIAL TISSUE” (FATTORIA LA VIALLAD DI GIANNI, ANTONIO E BANDINO LO FRANCO …, priority 2017, published 2021).
At least one structure is not confirmed: it was looked up by name or label, or the drawing left a doubt.

Details: administered alone; cited from earlier work

For `C/C=C1/[C@H](O[C@@H]2O[C@H](CO)[C@@H](O)[C@H](O)[C@H]2O)OC=C(C(=O)OC)[C@H]1CC(=O)OCCc1ccc(O)c(O)c1` [oleuropein], the anti-microbial activity is listed as “performs anti-microbial activity”.
